Values from PubChem BioAssay AID504804 (Drosophila RNAi Screening Center, 2011)
In all, the deposit lists about 19,000 reagents; shown is an unselected part of those that have a named target and a result. Over the whole deposit, 47 (0.25%) were called active. 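Signals are raw, not normalised; exact z-scores behind calls not deposited; actives needed confirmation, so some wells reaching 2 SD are inactive.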 A number with no mark means an inactive call. A plus sign joins genes that one reagent is predicted to hit.

- Aim: 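dsRNAs that improve Kc cell survival under doxorubicin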 (primary screen)
- System: Drosophila Kc cells
- Knock-down reagent: long dsRNA against Drosophila genes, 0.5 µg dsRNA per well
- Timing: 96 h (48 h knock-down, then 48 h drug)
- Treatment: doxorubicin 5 µg/ml for 48 h, added 48 h after dsRNA
- Measured: 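Viability measured as cellular ATP by luminescence after 48 h knock-down then 48 h doxorubicin at 5 µg/ml; unnormalised plate counts for each replicate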
- Reading the numbers: raw ATP luminescence: higher = more viable cells, protection from doxorubicin
- Rule for the call: 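Active when both duplicate wells lie at least 2 SD above the plate mean and protection is confirmed by rescreening and independent dsRNAs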

| gene knocked down | amplicon | raw ATP luminescence, replicate 1 | raw ATP luminescence, replicate 2 |
| --- | --- | --- | --- |
| CG32720 | DRSC17529 | 1.54e5 | 1.74e5 |
| Prosbeta4 (Proteasome beta4 subunit) | DRSC02603 | 59090 | 57170 |
| CG9855 | DRSC12344 | 19080 | 28920 |
| Ssrp (Structure specific recognition protein) | DRSC04658 | 73447 | 99803 |
| Mtpbeta (Mitochondrial trifunctional protein beta subunit) | DRSC04663 | 60453 | 51687 |
| DIP-eta (Dpr-interacting protein eta) | DRSC02342 | 24207 | 34840 |
| CG15472 | DRSC18055 | 35300 | 45700 |
| CG17991 | DRSC15294 | 61560 | 56450 |
| Strn-Mlck (Stretchin-Mlck) | DRSC05032 | 57313 | 62357 |
| Strn-Mlck (Stretchin-Mlck) | DRSC05598 | 43800 | 31727 |
| Pif2 (PFTAIRE-interacting factor 2) | DRSC12525 | 68690 | 66280 |
| PGRP-SB2 (Peptidoglycan recognition protein SB2) | DRSC11092 | 61300 | 54313 |
| Cyp4p1 (Cytochrome P450 4p1) | DRSC07372 | 44220 | 85517 |
| CG17681 | DRSC02632 | 56287 | 64033 |
| CG14929 + CG4970 | DRSC02411 | 39820 | 77873 |
| CG14929 + CG4970 | DRSC02796 | 40893 | 75580 |
| Ide (Insulin degrading metalloproteinase) | DRSC11867 | 25347 | 17500 |
| nsr (novel spermatogenesis regulator) | DRSC04427 | 76147 | 59097 |
| lobo (lost boys) | DRSC14662 | 80760 | 71740 |
| lobo (lost boys) | DRSC14663 | 82980 | 79850 |
| Clc (Clathrin light chain) | DRSC11116 | 53377 | 31210 |
| CG10184 | DRSC14204 | 38827 | 29393 |
| CG42260 | DRSC03953 | 65853 | 49187 |
| CG42260 | DRSC04172 | 71900 | 52560 |
| CG42260 | DRSC04385 | 61903 | 61717 |
| Afti (Aftiphilin) | DRSC16440 | 54307 | 24967 |
| vn (vein) | DRSC11408 | 50993 | 61933 |
| mRpL55 (mitochondrial ribosomal protein L55) | DRSC14764 | 35090 | 39210 |
| CG4714 | DRSC06883 | 70073 | 77147 |
| mRpS14 (mitochondrial ribosomal protein S14) | DRSC19444 | 3.09e5 | 3.08e5 |
| CG5080 | DRSC00677 | 99383 | 49417 |
| CG4596 | DRSC15608 | 81323 | 65893 |
| CG5568 | DRSC10518 | 43170 | 41770 |
| prod (proliferation disrupter) | DRSC07667 | 55003 | 62990 |
| Acsx2 (Acyl-CoA synthetase X2) | DRSC14308 | 69220 | 61200 |
| Crtc (CREB-regulated transcription coactivator) | DRSC10578 | 36787 | 33240 |
| vnd (ventral nervous system defective) | DRSC17360 | 2.23e5 | 2.46e5 |
| vnd (ventral nervous system defective) | DRSC18849 | 50680 | 59650 |

In a second layout: entries from further up.
{"gene knocked down":"CG14929 + CG4970","amplicon":"DRSC02411","raw ATP luminescence, replicate 1":39820,"raw ATP luminescence, replicate 2":77873}
{"gene knocked down":"CG14929 + CG4970","amplicon":"DRSC02796","raw ATP luminescence, replicate 1":40893,"raw ATP luminescence, replicate 2":75580}
{"gene knocked down":"Ide (Insulin degrading metalloproteinase)","amplicon":"DRSC11867","raw ATP luminescence, replicate 1":25347,"raw ATP luminescence, replicate 2":17500}
{"gene knocked down":"nsr (novel spermatogenesis regulator)","amplicon":"DRSC04427","raw ATP luminescence, replicate 1":76147,"raw ATP luminescence, replicate 2":59097}
{"gene knocked down":"lobo (lost boys)","amplicon":"DRSC14662","raw ATP luminescence, replicate 1":80760,"raw ATP luminescence, replicate 2":71740}
{"gene knocked down":"lobo (lost boys)","amplicon":"DRSC14663","raw ATP luminescence, replicate 1":82980,"raw ATP luminescence, replicate 2":79850}
{"gene knocked down":"Clc (Clathrin light chain)","amplicon":"DRSC11116","raw ATP luminescence, replicate 1":53377,"raw ATP luminescence, replicate 2":31210}
{"gene knocked down":"CG10184","amplicon":"DRSC14204","raw ATP luminescence, replicate 1":38827,"raw ATP luminescence, replicate 2":29393}
{"gene knocked down":"CG42260","amplicon":"DRSC03953","raw ATP luminescence, replicate 1":65853,"raw ATP luminescence, replicate 2":49187}
{"gene knocked down":"CG42260","amplicon":"DRSC04172","raw ATP luminescence, replicate 1":71900,"raw ATP luminescence, replicate 2":52560}
{"gene knocked down":"CG42260","amplicon":"DRSC04385","raw ATP luminescence, replicate 1":61903,"raw ATP luminescence, replicate 2":61717}
{"gene knocked down":"Afti (Aftiphilin)","amplicon":"DRSC16440","raw ATP luminescence, replicate 1":54307,"raw ATP luminescence, replicate 2":24967}
{"gene knocked down":"vn (vein)","amplicon":"DRSC11408","raw ATP luminescence, replicate 1":50993,"raw ATP luminescence, replicate 2":61933}

More records follow:
| gene knocked down | amplicon | raw ATP luminescence, replicate 1 | raw ATP luminescence, replicate 2 |
| --- | --- | --- | --- |
| CG17977 | DRSC06700 | 47673 | 76583 |
| BoYb | DRSC11637 | 22887 | 19353 |
| CG1494 | DRSC20509 | 3.08e5 | 3.04e5 |
| CG32189 | DRSC09511 | 62383 | 72117 |
| agt (O-6-alkylguanine-DNA alkyltransferase) | DRSC12611 | 63197 | 63783 |
| puc (puckered) | DRSC17034 | 39260 | 43870 |
| CycK (Cyclin K) | DRSC03714 | 72260 | 64667 |
| CG16775 | DRSC10225 | 70843 | 48437 |
| CG33758 | DRSC05158 | 74823 | 75097 |
| Cpr78Cb (Cuticular protein 78Cb) | DRSC11847 | 53533 | 45853 |
| ppl (pumpless) | DRSC11899 | 19213 | 25113 |
| CG11426 | DRSC11658 | 55370 | 53320 |
| Tsc1 | DRSC16890 | 43177 | 42330 |
| Pex3 (Peroxin 3) | DRSC10731 | 33170 | 35537 |
| CG30414 | DRSC04372 | 71947 | 61480 |
| CG15695 | DRSC15117 | 49770 | 64880 |
| CG34204 | DRSC03897 | 58123 | 53353 |
| CG31867 | DRSC03338 | 37390 | 62167 |
| CG15651 | DRSC04242 | 67210 | 62020 |
| CG17190 | DRSC15184 | 40020 | 30800 |
| Upf2 | DRSC18218 | 23980 | 32520 |
| CG13110 | DRSC02208 | 31893 | 71397 |
| Npc2d (Niemann-Pick type C-2d) | DRSC14551 | 49337 | 40797 |
| CG8664 | DRSC20116 | 2.63e5 | 2.83e5 |
| CG17721 | DRSC15253 | 58533 | 48277 |
| Whamy (WHAMM and JMY related) | DRSC14574 | 55657 | 52630 |
| Rox8 | DRSC16829 | 67970 | 68850 |
| CG42699 | DRSC18341 | 33720 | 35500 |
| CG10347 | DRSC19352 | 3.01e5 | 3.16e5 |
| CG9083 | DRSC04625 | 65927 | 69437 |
| Alp5 (Alkaline phosphatase 5) | DRSC14269 | 44097 | 36587 |
| EcR (Ecdysone receptor) | DRSC04906 | 42807 | 48717 |
| EcR (Ecdysone receptor) | DRSC04910 | 73787 | 68970 |
| CG17147 | DRSC10249 | 56543 | 55120 |
| dgrn (degringolade) | DRSC12154 | 57510 | 17180 |
| Cyp49a1 (Cytochrome P450 49a1) | DRSC06737 | 60947 | 84903 |
| Cyp49a1 (Cytochrome P450 49a1) | DRSC07367 | 63917 | 77737 |
| Dad1 (Defender against apoptotic cell death 1) | DRSC02263 | 34963 | 44410 |
| Vha13 (Vacuolar H[+] ATPase 13kD subunit) | DRSC16895 | 56390 | 84880 |
| wrapper | DRSC04723 | 64280 | 75343 |
| CstF64 (Cleavage stimulation factor 64 kD subunit) | DRSC16616 | 65920 | 54610 |
| Daxx (Daxx-like protein) | DRSC03255 | 1.27e5 | 1.12e5 |
| CanB2 (Calcineurin B2) | DRSC07355 | 1.60e5 | 2.17e5 |
| Exo70 (Exocyst 70) | DRSC10774 | 58237 | 76783 |
| pasi2 (pasiflora 2) | DRSC16380 | 53717 | 56877 |
| CRAT (Carnitine O-Acetyl-Transferase) | DRSC12523 | 56850 | 57590 |
